Measurements published in article PMC12344293, “A new class of binding-protein dependent solute transporter exemplified by the TAXI-GltS system from Bordetella pertussis” (Communications Biology, 2025).
No constants are given. Whether binding was seen depends on the method and setting.

B1: BP0403 C-terminal domain (BP0403SBP) (domain or fragment, UniProt Q7VSK8 208-503)
chain: YPLATGPDKGEYLAFGQALAAIGRNEQVRVIPLITGGSADNMAMLRSGAAVAALSQADIAQLAYEGKGPFESQGPFSGLRALGSLYPELVHIVVRQGDGIATVGALRGKKIALGPSGSAVRTTLETVLAAHGLQPGRDYAVIDTPAAAALPQLSEGRVDAVAQVIGTPAAPLRAALTQARLALLPLDRAAIDKLVQADPTLMALDIPANTYPSQAAAIPTVGMAALLVTTADLTRDEAAHMVDVVYRAGQDLLAAGSAQGAQVSAANAGRGLSIPLHDGAVEAFEKLGAPPLPEGR
B2: BP0403 N-terminal domain (BP0403NTD) (domain or fragment, UniProt Q7VSK8 20-139)
chain: SRAPDTEILQRDVGQTLAATYGPDLFDIVALRRMGSATDSTAPPGQTRRVVYYDVVLGLKKDLTLGAWDQPGAAALVSLLGAGPRSISGVKSSGNAAGDQIVAHASAIYQRDAEQWVHVA

Tests used:
[1] = biological target: BP0403 C-terminal domain (BP0403SBP) (Bordetella pertussis) (UniProt Q7VSK8); assay: SEC; Superdex 200 Increase 10/300 GL, 0.5 ml/min, SEC buffer (50 mM Tris-HCl pH 8, 100 mM NaCl, 5% glycerol); IMAC eluate incubated 20 min at room temperature with 5 mM EDTA and 100 mM glycerol before loading; elution volume compared with a calibration curve of molecular weight standards; both purified
[2] = biological target: BP0403 N-terminal domain (BP0403NTD) (Bordetella pertussis) (UniProt Q7VSK8); assay: as above

Binder	binding [1]	binding [2]
B1	no binding	
B2		no binding
